Measurements reported in PubChem BioAssay AID1259314 (Drosophila RNAi Screening Center, 2017)
Shown is one part, drawn at random, of about 3,100 reagents tested. 289 of all reagents (9.3%) count as active. 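Active includes both higher and lower ATP than plate average; check the z-score sign for direction.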 A plus sign joins genes that one reagent is predicted to hit. The record does not give: the amount of reagent.

Assay: 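Modifiers of manganese chloride toxicity in fly cells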 (primary screen)
Cells: Drosophila S2R+ cells
Knock-down reagent: long dsRNA against Drosophila genes
Duration: 5 days (4 days knock-down, then 1 day metal exposure)
Conditions: manganese chloride added to 15 mM for 24 hours
Measured: 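Cellular ATP measured by luciferase light, scaled to the plate mean, averaged across replicates and z-scored over plates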
Reading the numbers: mean ATP z-score: higher = more ATP than the plate average, more viable cells under manganese
Rule for the call: 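a mean ATP z-score past 1.5 in either direction is called active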
Calls: active = strong ATP change, up or down; inactive = no strong ATP change

target gene | dsRNA | mean ATP z-score | call
CG33310 | DRSC01897 | -0.56 | inactive
CG33310 | DRSC24914 | -0.15 | inactive
VhaM9.7-b | DRSC11841 | -0.398 | inactive
Or94b | DRSC16773 | -0.919 | inactive
Or94b | DRSC27188 | -0.267 | inactive
5-HT1B | DRSC05031 | -0.204 | inactive
5-HT1B | DRSC25996 | 1.21 | inactive
Ir94d | DRSC21568 | -0.564 | inactive
PMCA | DRSC17113 | -0.833 | inactive
PMCA | DRSC17114 | -1.17 | inactive
PMCA | DRSC17154 | -1.29 | inactive
CG32547 | DRSC19263 | -0.302 | inactive
CG32547 | DRSC19474 | 1.53 | active
CG42514 + CG43373 | DRSC26599 | 2.03 | active
CG8051 | DRSC20077 | -0.245 | inactive
CG8051 | DRSC26855 | -1 | inactive
CG4743 | DRSC15636 | -0.298 | inactive
slo | DRSC17057 | 0.0458 | inactive
para | DRSC19141 | 2.91 | active
para | DRSC20360 | -0.235 | inactive
MstProx | DRSC12458 | -0.392 | inactive
MstProx | DRSC12601 | -0.363 | inactive
CG14743 | DRSC06479 | -0.497 | inactive
CG14743 | DRSC39688 | 0.926 | inactive
Eaat2 | DRSC00032 | 1 | inactive
Eaat2 | DRSC00749 | 0.469 | inactive
Eaat2 | DRSC26070 | 0.991 | inactive
Calx | DRSC13457 | 0.874 | inactive
Calx | DRSC16599 | -0.234 | inactive
Calx | DRSC21850 | -0.593 | inactive
Calx | DRSC24386 | 1.62 | active
stan | DRSC07697 | 0.39 | inactive
stan | DRSC39642 | -0.508 | inactive
CG12355 | DRSC09381 | 0.714 | inactive
CG12355 | DRSC09883 | -0.719 | inactive
Tsp29Fa | DRSC03232 | -0.232 | inactive
Tsp29Fa | DRSC28522 | 0.000836 | inactive
140up | DRSC12634 | -1.28 | inactive
140up | DRSC28711 | -1.73 | active
PIG-B | DRSC22598 | 0.0132 | inactive
PIG-B | DRSC39659 | -0.758 | inactive
CG18635 | DRSC06780 | -0.108 | inactive
CG18635 | DRSC25971 | -0.0926 | inactive
Elo68alpha | DRSC22725 | -0.0774 | inactive
ZnT33D | DRSC02591 | 0.626 | inactive
ZnT33D | DRSC39537 | -0.845 | inactive
syd | DRSC10963 | 0.621 | inactive
syd | DRSC24418 | -0.926 | inactive
Drl-2 | DRSC06155 | 0.346 | inactive
Drl-2 | DRSC06858 | -0.837 | inactive
Drl-2 | DRSC36862 | 0.608 | inactive
Drl-2 | DRSC36863 | 0.282 | inactive
Glut1 | DRSC07927 | 0.0631 | inactive
Glut1 | DRSC08662 | -0.462 | inactive
Ir48c | DRSC06154 | 0.451 | inactive
Ir48c | DRSC39434 | 0.735 | inactive
CG42826 | DRSC10682 | -1.13 | inactive
CG18549 | DRSC15347 | -0.23 | inactive
CG18549 | DRSC28847 | -0.321 | inactive
CG31792 | DRSC02604 | 0.13 | inactive
CG31792 | DRSC39634 | -0.189 | inactive
Gr85a | DRSC12760 | -0.458 | inactive
Gr85a | DRSC39653 | -0.587 | inactive
Dop1R2 | DRSC13958 | -1.44 | inactive
Dop1R2 | DRSC28272 | 1.89 | active
ppk28 | DRSC19919 | 1.19 | inactive
ppk28 | DRSC39604 | -0.846 | inactive
Osi13 | DRSC12281 | -0.868 | inactive
CG9536 | DRSC03254 | -0.358 | inactive
CG9536 | DRSC24736 | -1.43 | inactive
spin | DRSC22271 | -1.41 | inactive
spin | DRSC39628 | -0.773 | inactive
CG7970 | DRSC08605 | 2.11 | active
CG7970 | DRSC26090 | 0.414 | inactive
CG7888 | DRSC10926 | 2.02 | active
CG7888 | DRSC39855 | 0.653 | inactive
